Test results published in US12704506B2, “Microbial analysis without cell purification” (First Light Diagnostics, Inc., priority 2018, dated 2026).
For at least one compound, name, drawing or mass did not settle the structure.

System: E. coli ATCC 25922
Experiment: BMD method (16-24 hours of growth) in presence of beta-lactamase producing K. pneumoniae, Example 11
Assay type: cell-based
Details: sensitive E. coli strain, increasing levels of K. pneumonaie

Question: How did the “MIC trend, BMD method” value turn out when `C[C@@H](O)[C@H]1C(=O)N2C(C(=O)O)=C(SCCN=CN)C[C@H]12` [Imipenem] was run?
Answer: increasing MIC
